Results published in patent US10287265B2, “Enantiomers of 8-hydroxyquinoline derivatives and the synthesis thereof” (AVIDIN Co. Ltd., priority 2015, dated 2019).
The name of at least one read-out is uncertain.

Tests used:
Assay in all cases: Fluorophotometric matrix metalloproteinase activity measurement
Type in all cases: biochemical
Conditions in all cases: 25 μM-195 nM, pre-incubated at 37° C., read one hour after reaction start
[1] = biological target: Matrix Metalloproteinase 14 (MMP-14) (Homo sapiens, UniProt P50281)
[2] = biological target: Matrix Metalloproteinase 12 (MMP-12) (Homo sapiens, UniProt P39900)
[3] = biological target: Matrix Metalloproteinase 10 (MMP-10) (Homo sapiens, UniProt P09238)
[4] = biological target: T1, Matrix Metalloproteinase 2 (MMP-2, 72 kDa Gelatinase) (Homo sapiens, UniProt P08253)
T1 sequence (P08253 110-660): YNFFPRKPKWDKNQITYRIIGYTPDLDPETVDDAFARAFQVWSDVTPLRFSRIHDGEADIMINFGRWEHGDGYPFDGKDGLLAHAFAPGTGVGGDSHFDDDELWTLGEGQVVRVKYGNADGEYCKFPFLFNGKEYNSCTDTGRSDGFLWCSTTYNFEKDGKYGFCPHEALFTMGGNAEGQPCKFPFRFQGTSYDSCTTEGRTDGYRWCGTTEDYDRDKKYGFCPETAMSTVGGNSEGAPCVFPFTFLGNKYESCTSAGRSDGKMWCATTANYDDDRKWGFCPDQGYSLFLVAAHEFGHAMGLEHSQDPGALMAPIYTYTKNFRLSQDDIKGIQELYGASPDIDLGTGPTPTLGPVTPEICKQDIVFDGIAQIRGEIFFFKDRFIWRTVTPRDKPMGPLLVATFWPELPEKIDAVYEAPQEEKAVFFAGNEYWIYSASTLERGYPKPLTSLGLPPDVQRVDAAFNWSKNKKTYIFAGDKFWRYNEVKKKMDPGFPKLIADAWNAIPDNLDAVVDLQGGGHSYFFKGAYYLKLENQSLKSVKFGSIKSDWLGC

[5] = biological target: Matrix Metalloproteinase 8 (MMP-8) (Homo sapiens, UniProt P22894)
[6] = biological target: Matrix Metalloproteinase 13 (MMP-13) (Homo sapiens, UniProt P45452)

Structure (SMILES) | inhibition of MMP-14 activity (IC50 values shown in FIG. 5) [1] | inhibition of MMP-12 activity (IC50 values shown in FIG. 5) [2] | inhibition of MMP-10 activity (IC50 values shown in FIG. 5) [3] | inhibition of MMP-2 activity (IC50 values shown in FIG. 5) [4] | inhibition of MMP-8 activity (IC50 values shown in FIG. 5) [5] | inhibition of MMP-13 activity (IC50 values shown in FIG. 5) [6]
Cc1ccnc(N[C@H](c2ccc(C(F)(F)F)cc2)c2ccc3cccnc3c2O)n1 [Example 2, 7-[(R)-[(4-Methylpyrimidin-2-yl)amino][4-(trifluoromethyl)phenyl]methyl]quinolin-8-ol] | inhibited activities of the investigated enzymes to a similar extent | inhibited activities of the investigated enzymes to a similar extent | inhibited activities of the investigated enzymes to a similar extent | inhibited activities of the investigated enzymes to a similar extent | inhibited activities of the investigated enzymes to a similar extent | inhibited activities of the investigated enzymes to a similar extent
Cc1ccnc(N[C@@H](c2ccc(C(F)(F)F)cc2)c2ccc3cccnc3c2O)n1 [Example 3, 7-[(S)-[(4-Methylpyrimidin-2-yl)amino][4-(trifluoromethyl)phenyl]methyl]quinolin-8-ol] | inhibited activities of the investigated enzymes to a similar extent | inhibited activities of the investigated enzymes to a similar extent | inhibited activities of the investigated enzymes to a similar extent | inhibited activities of the investigated enzymes to a similar extent | inhibited activities of the investigated enzymes to a similar extent | inhibited activities of the investigated enzymes to a similar extent
